Values of other authors as cited in patent US11413271B2, “Oral eliglustat transmucosal delivery system” (ABON PHARMACEUTICALS LLC., priority 2018, dated 2022).
At least one read-out could not be matched to a standard name with certainty.

## CCCCCCCC(=O)N[C@H](CN1CCCC1)[C@H](O)c1ccc2c(c1)OCCO2 [eliglustat]
CYP2D6 intermediate metabolizers
  Bioavailability of IMs relative to EMs (predicted): 3.3 times
CYP2D6 poor metabolizers
  Bioavailability of PMs relative to EMs (predicted): 18.8 times
